Literature values, collected in patent publication US11766428B2 (TAVANTA THERAPEUTICS HUNGARY INCORPORATED, priority 2018, dated 2023).
For at least one compound, name, drawing or mass did not settle the structure.

Test system: patients with hypertension
Details: chronic once daily oral administration

## CCOC(=O)C1=C(COCCN)NC(C)=C(C(=O)OC)C1c1ccccc1Cl (stereo not shown) [amlodipine]
  duration of antihypertensive effectiveness: at least 24 hours
